PubChem BioAssay AID493246 – Drosophila RNAi Screening Center | 2011

- Screen: 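Genome-wide search for dsRNAs that reduce cell number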 (primary screen)
- Cells: Drosophila Kc and S2R+ cells
- Reagent: long dsRNA against Drosophila genes
- Measurement: 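Raw, unnormalised count of remaining cells in each well; per-plate z-scores of cell number underlie the calls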
- Scale: Kc cell number and S2R+ cell number: higher = more cells remaining
- Rule for the call: 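Active when the per-plate z-score of cell number is 3 or more in the direction of fewer cells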
In all, the deposit lists about 21,000 reagents; shown is an unselected part of those with a known target gene and a result. In the full data, 429 (2%) got an active call. 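Values are raw and not normalised between plates; calls rest on per-plate z-scores that were not deposited.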 Entries without a mark were called inactive. Reagents against one gene are numbered here. The record does not give: the amount of reagent, the time to read-out.

gene	dsRNA no.	Kc cell number, rep 1	Kc cell number, rep 2	S2R+ cell number, rep 1	S2R+ cell number, rep 2
CG42296	1	1.55e6	1.53e6	1.00e6	1.08e6
Mur18B (Mucin related 18B)	1	1.60e6	1.64e6	1.18e6	1.33e6
Mal-A4 (Maltase A4)	1	1.52e6	1.52e6	1.29e6	1.46e6
Vps13D (Vacuolar protein sorting 13D)	1	1.17e6	1.39e6	1.18e6	1.27e6
Vps13D (Vacuolar protein sorting 13D)	2	1.18e6	1.43e6	1.14e6	1.22e6
CG14995	1	1.16e6	1.24e6	6.93e5	7.59e5
l(2)SH0834 (lethal (2) SH0834)	1	1.47e6	1.53e6	9.52e5	1.03e6
rux (roughex)	1	5.57e5		8.74e5	
CG7320	1	1.32e6	1.47e6	1.26e6	1.34e6

A stretch of the results above:
gene	dsRNA no.	Kc cell number, rep 1	Kc cell number, rep 2	S2R+ cell number, rep 1	S2R+ cell number, rep 2
Vps13D (Vacuolar protein sorting 13D)	2	1.18e6	1.43e6	1.14e6	1.22e6
CG14995	1	1.16e6	1.24e6	6.93e5	7.59e5

The listing continues.
gene	dsRNA no.	Kc cell number, rep 1	Kc cell number, rep 2	S2R+ cell number, rep 1	S2R+ cell number, rep 2
CG31523	1	1.77e6	1.86e6	1.17e6	1.41e6
CG31523	2	1.60e6	1.76e6	1.33e6	1.33e6
Grl65a (Gustatory receptor-like 65a)	1	1.38e6	1.46e6	1.12e6	1.28e6
CG4069	1	1.35e6	1.53e6	1.16e6	1.10e6
Spase22-23 (Spase 22/23-subunit)	1	1.68e6	1.59e6	1.05e6	1.14e6
CG13159	1	1.67e6	1.56e6	1.23e6	1.31e6
Cyp4ae1 (Cytochrome P450 4ae1)	1	5.31e5		8.13e5	
CG5565	1	1.61e6	1.58e6	1.05e6	1.23e6
Tis11 (Tis11 zinc finger protein)	1	4.02e5		5.68e5	
CG4988	1	1.77e6	1.75e6	1.28e6	1.35e6
CG14244	1	1.51e6	1.46e6	9.94e5	1.11e6
pdgy (pudgy)	1	1.39e6	1.75e6	1.12e6	1.25e6
pdgy (pudgy)	2	5.85e5		7.95e5	
CG1227	1	1.67e6	1.83e6	1.43e6	1.59e6
CG43328	1	5.23e5		7.79e5	
